Reference: PubChem BioAssay AID445 (National Center for Advancing Translational Sciences (NCATS), 2006)
This is one part of the list. These are further read-outs of the screen, such as a control signal, another cell line or another target. No call is given for them. Compounds called inactive in the main read-out are mostly missing here. Potencies come from curve fits of mixed quality, noted in brackets.

Assay: IkB Signaling
Conditions: ABC-DLBCL IkBa-CBG/CBR dual luciferase ratio (green luciferase fused to IkBa over red control in OCI-Ly3 lymphoma cells), 4 h
Procedure, shortened: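 Luminescence ratio of IκBα-fused green versus native red beetle luciferase in OCI-Ly3 cells, 4 h post-doxycycline with compound; red signal alone, scaled from basal (0%) to zero light (-100%), flagged nonspecific or cytotoxic effects.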

[1] = measured here: IkB-luc green channel
[2] = measured here: control luc red channel
[3] = measured here: control luc red channel unless noted

Structure (SMILES): CC1CCCC(C)N1C(=O)CN1CCN(c2nc(-c3ccc(F)cc3)cs2)CC1 (configuration not stated)
- AC50 [1]: 31.6 µM [falling, single point]
- AC50 [2]: 25.1 µM [falling, partial curve]

Structure (SMILES): COc1ccc(S(=O)(=O)c2c(O)c3ccc(C(=O)Nc4ccccc4)cc3[nH]c2=O)cc1
- AC50 [3]: 12.6 µM [falling, partial curve]

Structure (SMILES): Cc1nn(C)cc1CN(C)C(=O)c1sc2cccc(Cl)c2c1Cl
- AC50 [3]: 6.31 µM [falling, partial curve]

Structure (SMILES): Cc1ccc(Cl)cc1NC(=O)C1CCCN(c2cnccn2)C1 (configuration not stated)
- AC50 [3]: 12.6 µM [falling, partial curve]

Structure (SMILES): CCc1nn(CC(=O)Nc2cccc(C(C)=O)c2)c(=O)c2cc3sccc3n12
- AC50 [3]: 1 µM [rising, full curve, poor fit]

Structure (SMILES): CCS(=O)(=O)c1ncc(Cl)c(C(=O)NCc2ccc(OC)cc2)n1
- AC50 [3]: 7.94 µM [falling, full curve]

Structure (SMILES): Cc1cccc(-c2noc(CN(C(=O)c3ccc(Br)o3)C(C)C)n2)c1
- AC50 [3]: 25.1 µM [falling, partial curve]

Structure (SMILES): CCOC(=O)c1ccccc1NC(=O)Cn1c(=O)n(Cc2nc(C)no2)c(=O)c2ccccc21
- AC50 [3]: 1 µM [falling, full curve, poor fit]

Structure (SMILES): O=C(CCn1c(=O)c2ccccc2n(Cc2cccc(Cl)c2)c1=O)NCCc1ccccc1
- AC50 [3]: 15.8 µM [falling, partial curve]

Structure (SMILES): O=C(NCC1(c2ccccc2)CCCC1)C(=O)Nc1cccc(Br)c1
- AC50 [3]: 0.316 µM [rising, full curve, poor fit]

Structure (SMILES): O=C1CCCC2=C1C(c1cccs1)n1nc(SCc3ccccc3F)nc1N2 (configuration not stated)
- AC50 [3]: 20 µM [falling, partial curve]

Structure (SMILES): COc1cc(Nc2ncc3c(n2)CCN(Cc2cccc(C)c2)C3)cc(OC)c1
- AC50 [3]: 12.6 µM [falling, partial curve]

Structure (SMILES): Cc1oc2c(C)c3oc(=O)c(CC(=O)N4CCCCC4)c(C)c3cc2c1C
- AC50 [3]: 31.6 µM [falling, single point]

Structure (SMILES): COc1ccc(CCNc2oc(COc3ccccc3F)nc2C#N)cc1
- AC50 [3]: 15.8 µM [falling, partial curve]

Structure (SMILES): CCc1ccc(C2CC(=O)N3CN(c4ccccc4)CSC3=C2C#N)cc1 (configuration not stated)
- AC50 [3]: 10 µM [falling, partial curve]

Structure (SMILES): COc1cccc(C(=O)Nc2nc(-c3ccc(Br)cc3)ns2)c1
- AC50 [3]: 3.98 µM [falling, full curve]

Structure (SMILES): Cc1ccccc1OCCn1c(CCNC(=O)C2CCCCC2)nc2ccccc21
- AC50 [3]: 31.6 µM [falling, single point]

Structure (SMILES): CC(C)(C)C(=O)Nc1ccccc1C(=O)OCc1cc(=O)n2ccsc2n1
- AC50 [3]: 6.31 µM [falling, full curve]

Structure (SMILES): COCc1nnc(NC(=O)c2sc3ccccc3c2Cl)s1
- AC50 [3]: 12.6 µM [falling, partial curve]

Structure (SMILES): CCc1ccccc1-n1nnc(-c2nsc(NC(=O)c3ccc(C)c(C)c3)n2)c1C
- AC50 [3]: 15.8 µM [falling, partial curve]

Structure (SMILES): COCCCNC(=O)CSC1=Nc2ccccc2C2=NC(CCC(=O)NCc3ccc(OC)cc3)C(=O)N12 (configuration not stated)
- AC50 [3]: 6.31 µM [rising, partial curve, poor fit]

Structure (SMILES): Cc1oc(-c2ccc(Cl)cc2)nc1CN1CCCC(C(=O)NCc2ccccc2)C1 (configuration not stated)
- AC50 [3]: 12.6 µM [falling, partial curve]

Structure (SMILES): C=Cc1c(C)c2cc3nc(cc4[nH]c(cc5nc(cc1[nH]2)C(C)=C5CCC(=O)O)c(CCC(=O)OC)c4C)[C@@]1(C)C3=CC=C(C(=O)OC)[C@H]1C(=O)OC (tested in a mixture with another compound)
- AC50 [3]: 10 µM [falling, partial curve]

Structure (SMILES): CCN1CCN(C(c2ccccc2Cl)c2c(O)cc(C)n(CCOC)c2=O)CC1 (configuration not stated)
- AC50 [3]: 0.0501 µM [falling, full curve, poor fit]

Structure (SMILES): Cc1nnc(NC(=O)c2ccc(S(=O)(=O)N(C)Cc3ccccc3)cc2)o1
- AC50 [3]: 6.31 µM [rising, single point] [measured here: IkB-luc green channel]

Structure (SMILES): Cc1cc(SCC(=O)NC(=O)NCc2ccco2)nc2c(C)cccc12
- AC50 [3]: 25.1 µM [rising, partial curve] [measured here: IkB-luc green channel]

Structure (SMILES): Cc1ccc(C)c(N2CCN(CCCNC(=O)c3ccc4nc(CCc5ccccc5)oc4c3)CC2)c1
- AC50 [3]: 20 µM [falling, single point]

Structure (SMILES): COc1ccc(OC)c(NS(=O)(=O)c2ccc(N3CCCCS3(=O)=O)cc2)c1
- AC50 [3]: 0.0794 µM [falling, full curve, poor fit]

Structure (SMILES): Cc1ccc(C(=O)N/C(=C\c2ccc(Cl)cc2)C(=O)NC2CCCCC2)cc1
- AC50 [3]: 15.8 µM [falling, partial curve]

Structure (SMILES): COc1ccc(C(=O)c2sc(Nc3ccccc3)nc2N)cc1
- AC50 [3]: 7.94 µM [falling, full curve]

Structure (SMILES): CC(=O)c1cccc(NC(=O)CN(c2cc(C)cc(C)c2)S(=O)(=O)c2c(C)noc2C)c1
- AC50 [3]: 10 µM [falling, partial curve]

Structure (SMILES): Cc1cc(-n2ccnc(NCCc3ccc(S(N)(=O)=O)cc3)c2=O)ccc1Br
- AC50 [3]: 31.6 µM [falling, partial curve]

Structure (SMILES): COc1ccc(-c2onc(C)c2C)cc1S(=O)(=O)N(C)Cc1ccccc1
- AC50 [3]: 25.1 µM [falling, single point]

Structure (SMILES): COc1ccc(NC(=O)c2ccco2)cc1NC(=O)c1cc(OC)c(OC)c(OC)c1
- AC50 [3]: 15.8 µM [falling, single point]

Structure (SMILES): CC(C)CCn1c(/C=C/c2ccccc2)nc2ccccc21
- AC50 [3]: 31.6 µM [falling, partial curve]

Structure (SMILES): Cc1ccc(-c2cn3ccc(C)cc3n2)cc1
- AC50 [3]: 2.51 µM [falling, full curve]

Structure (SMILES): Cc1cc(C)cc(NC(=O)CSc2nc3nccnc3c(=O)n2CCc2c[nH]c3ccccc23)c1
- AC50 [3]: 0.501 µM [falling, full curve]

Structure (SMILES): O=C(Nc1ccccc1Cl)N1CCSc2ccccc21
- AC50 [3]: 39.8 µM [rising, single point]

Structure (SMILES): N#Cc1nc(COc2ccc(Cl)cc2)oc1NCc1ccc2c(c1)OCO2
- AC50 [3]: 12.6 µM [falling, partial curve]

Structure (SMILES): CCOC(=O)Cn1c(=O)n(C2CCCCC2)c2nc(-c3c(F)cccc3Cl)nc(C(N)=O)c21
- AC50 [3]: 25.1 µM [falling, single point]

Structure (SMILES): Nc1nc(Nc2ccccc2)nc2c1ncn2[C@@H]1O[C@@H](CO)[C@H](O)[C@@H]1O
- AC50 [1]: 0.0794 µM [rising, full curve]
- AC50 [2]: 0.01 µM [rising, full curve]

Structure (SMILES): Oc1c(C(c2ccco2)N2CCN(C(c3ccccc3)c3ccccc3)CC2)sc2ncnn12 (configuration not stated)
- AC50 [3]: 3.16 µM [rising, full curve] [measured here: IkB-luc green channel]

Structure (SMILES): Cc1cccc(NC(=O)Cn2c(=O)n(CCCCCC(=O)NCc3ccc4c(c3)OCO4)c(=O)c3sccc32)c1
- AC50 [3]: 7.94 µM [falling, partial curve]

Structure (SMILES): CC(=O)N1C(=O)N(C)C2C1N(C(C)=O)C(=O)N2C (configuration not stated)
- AC50 [3]: 631 nM [rising, partial curve] [measured here: IkB-luc green channel]

Structure (SMILES): COC(=O)c1scc(-c2ccc(C)cc2)c1S(=O)(=O)Nc1cc(C)ccc1OC
- AC50 [3]: 20 µM [falling, partial curve, poor fit]

Structure (SMILES): COc1ccccc1NC(=O)c1cc2ccccc2o/c1=N\O
- AC50 [1]: 5.01 µM [rising, partial curve]
- AC50 [2]: 39.8 µM [falling, single point]

Structure (SMILES): COC(=O)/C=C/S(=O)(=O)c1ccc(NC(C)=O)cc1
- AC50 [1]: 6.31 µM [falling, full curve]
- AC50 [2]: 3.16 µM [falling, full curve]

Structure (SMILES): O=C(c1ccc2c(c1)N(Cc1ccccc1)C(=O)c1ccccc1S2(=O)=O)N1CCN(Cc2ccccc2)CC1
- AC50 [3]: 5.01 µM [falling, full curve]

Structure (SMILES): COc1cccc(-c2cnc(NCc3cc(Cl)ccc3O)n2C)c1
- AC50 [3]: 31.6 µM [falling, single point]

Structure (SMILES): COc1ccc(Cn2c(=O)c3oc4ccccc4c3n(Cc3ccccc3)c2=O)cc1
- AC50 [3]: 39.8 µM [falling, single point]

Structure (SMILES): CCOC(=O)c1[nH]c(C)c(CCC(=O)NCc2cccc(Cl)c2)c1C
- AC50 [3]: 0.2 µM [falling, full curve, poor fit]

Structure (SMILES): O=C(CSc1c2c(nc3ccccc13)CCC2)Nc1ccc(F)cc1F
- AC50 [3]: 3.98 µM [falling, partial curve]

Structure (SMILES): COc1ccccc1CCNC(=O)Cc1c(C)c2c(O)cc(C)cc2oc1=O
- AC50 [3]: 20 µM [falling, partial curve]

Structure (SMILES): COC(=O)c1ccc([C@@H]2Nc3c(cccc3C(F)(F)F)[C@@H]3C=CC[C@@H]32)cc1
- AC50 [3]: 20 µM [falling, partial curve]

Structure (SMILES): O=C(O)[C@@H]1[C@H](C(=O)O)[C@H]2C(=O)C=C[C@H]1N2Cc1ccccc1
- AC50 [3]: 3.98 µM [rising, partial curve] [measured here: IkB-luc green channel]

Structure (SMILES): CCOC(=O)c1cnn(-c2sc(C(=O)OCC)c(C)c2C(=O)OCC)c1N
- AC50 [3]: 2.51 µM [falling, full curve, poor fit]

Structure (SMILES): Cc1ccccc1CN1C(=O)c2ccccc2Sc2ccc(C(=O)N3CCOCC3)cc21
- AC50 [3]: 20 µM [falling, partial curve]

Structure (SMILES): Cc1ccc(N2C(=O)SC(N(CC(=O)O)c3cccc(C)c3)C2=O)cc1 (configuration not stated)
- AC50 [3]: 2 µM [falling, full curve]
